# Results are given in words; binding and its absence hold for the method and conditions named. In cells and extracts the contact can be indirect. A yes stands for co-enrichment or nearness to the bait. Other partners may have been found.
# Sequences of proteins named here, by UniProt entry; tags and fusion partners are left off.
# UniProt Q08642: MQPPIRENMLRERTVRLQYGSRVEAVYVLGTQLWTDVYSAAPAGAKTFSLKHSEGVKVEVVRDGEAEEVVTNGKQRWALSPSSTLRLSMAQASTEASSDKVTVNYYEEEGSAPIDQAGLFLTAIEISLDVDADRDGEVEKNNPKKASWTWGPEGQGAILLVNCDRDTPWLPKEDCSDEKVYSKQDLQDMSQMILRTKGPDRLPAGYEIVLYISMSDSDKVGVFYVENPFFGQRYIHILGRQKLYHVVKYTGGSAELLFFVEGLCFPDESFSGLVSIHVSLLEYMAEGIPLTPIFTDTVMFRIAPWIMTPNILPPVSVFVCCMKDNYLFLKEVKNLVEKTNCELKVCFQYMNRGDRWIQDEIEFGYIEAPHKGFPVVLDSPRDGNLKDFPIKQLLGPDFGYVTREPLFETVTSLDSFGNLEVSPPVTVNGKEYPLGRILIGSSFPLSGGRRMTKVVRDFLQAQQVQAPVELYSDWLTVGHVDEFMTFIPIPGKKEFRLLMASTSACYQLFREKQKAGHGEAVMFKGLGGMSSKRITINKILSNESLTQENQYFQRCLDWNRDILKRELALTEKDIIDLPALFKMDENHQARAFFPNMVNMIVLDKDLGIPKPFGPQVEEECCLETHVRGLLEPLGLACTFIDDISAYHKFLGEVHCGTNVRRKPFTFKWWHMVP
# UniProt P19096: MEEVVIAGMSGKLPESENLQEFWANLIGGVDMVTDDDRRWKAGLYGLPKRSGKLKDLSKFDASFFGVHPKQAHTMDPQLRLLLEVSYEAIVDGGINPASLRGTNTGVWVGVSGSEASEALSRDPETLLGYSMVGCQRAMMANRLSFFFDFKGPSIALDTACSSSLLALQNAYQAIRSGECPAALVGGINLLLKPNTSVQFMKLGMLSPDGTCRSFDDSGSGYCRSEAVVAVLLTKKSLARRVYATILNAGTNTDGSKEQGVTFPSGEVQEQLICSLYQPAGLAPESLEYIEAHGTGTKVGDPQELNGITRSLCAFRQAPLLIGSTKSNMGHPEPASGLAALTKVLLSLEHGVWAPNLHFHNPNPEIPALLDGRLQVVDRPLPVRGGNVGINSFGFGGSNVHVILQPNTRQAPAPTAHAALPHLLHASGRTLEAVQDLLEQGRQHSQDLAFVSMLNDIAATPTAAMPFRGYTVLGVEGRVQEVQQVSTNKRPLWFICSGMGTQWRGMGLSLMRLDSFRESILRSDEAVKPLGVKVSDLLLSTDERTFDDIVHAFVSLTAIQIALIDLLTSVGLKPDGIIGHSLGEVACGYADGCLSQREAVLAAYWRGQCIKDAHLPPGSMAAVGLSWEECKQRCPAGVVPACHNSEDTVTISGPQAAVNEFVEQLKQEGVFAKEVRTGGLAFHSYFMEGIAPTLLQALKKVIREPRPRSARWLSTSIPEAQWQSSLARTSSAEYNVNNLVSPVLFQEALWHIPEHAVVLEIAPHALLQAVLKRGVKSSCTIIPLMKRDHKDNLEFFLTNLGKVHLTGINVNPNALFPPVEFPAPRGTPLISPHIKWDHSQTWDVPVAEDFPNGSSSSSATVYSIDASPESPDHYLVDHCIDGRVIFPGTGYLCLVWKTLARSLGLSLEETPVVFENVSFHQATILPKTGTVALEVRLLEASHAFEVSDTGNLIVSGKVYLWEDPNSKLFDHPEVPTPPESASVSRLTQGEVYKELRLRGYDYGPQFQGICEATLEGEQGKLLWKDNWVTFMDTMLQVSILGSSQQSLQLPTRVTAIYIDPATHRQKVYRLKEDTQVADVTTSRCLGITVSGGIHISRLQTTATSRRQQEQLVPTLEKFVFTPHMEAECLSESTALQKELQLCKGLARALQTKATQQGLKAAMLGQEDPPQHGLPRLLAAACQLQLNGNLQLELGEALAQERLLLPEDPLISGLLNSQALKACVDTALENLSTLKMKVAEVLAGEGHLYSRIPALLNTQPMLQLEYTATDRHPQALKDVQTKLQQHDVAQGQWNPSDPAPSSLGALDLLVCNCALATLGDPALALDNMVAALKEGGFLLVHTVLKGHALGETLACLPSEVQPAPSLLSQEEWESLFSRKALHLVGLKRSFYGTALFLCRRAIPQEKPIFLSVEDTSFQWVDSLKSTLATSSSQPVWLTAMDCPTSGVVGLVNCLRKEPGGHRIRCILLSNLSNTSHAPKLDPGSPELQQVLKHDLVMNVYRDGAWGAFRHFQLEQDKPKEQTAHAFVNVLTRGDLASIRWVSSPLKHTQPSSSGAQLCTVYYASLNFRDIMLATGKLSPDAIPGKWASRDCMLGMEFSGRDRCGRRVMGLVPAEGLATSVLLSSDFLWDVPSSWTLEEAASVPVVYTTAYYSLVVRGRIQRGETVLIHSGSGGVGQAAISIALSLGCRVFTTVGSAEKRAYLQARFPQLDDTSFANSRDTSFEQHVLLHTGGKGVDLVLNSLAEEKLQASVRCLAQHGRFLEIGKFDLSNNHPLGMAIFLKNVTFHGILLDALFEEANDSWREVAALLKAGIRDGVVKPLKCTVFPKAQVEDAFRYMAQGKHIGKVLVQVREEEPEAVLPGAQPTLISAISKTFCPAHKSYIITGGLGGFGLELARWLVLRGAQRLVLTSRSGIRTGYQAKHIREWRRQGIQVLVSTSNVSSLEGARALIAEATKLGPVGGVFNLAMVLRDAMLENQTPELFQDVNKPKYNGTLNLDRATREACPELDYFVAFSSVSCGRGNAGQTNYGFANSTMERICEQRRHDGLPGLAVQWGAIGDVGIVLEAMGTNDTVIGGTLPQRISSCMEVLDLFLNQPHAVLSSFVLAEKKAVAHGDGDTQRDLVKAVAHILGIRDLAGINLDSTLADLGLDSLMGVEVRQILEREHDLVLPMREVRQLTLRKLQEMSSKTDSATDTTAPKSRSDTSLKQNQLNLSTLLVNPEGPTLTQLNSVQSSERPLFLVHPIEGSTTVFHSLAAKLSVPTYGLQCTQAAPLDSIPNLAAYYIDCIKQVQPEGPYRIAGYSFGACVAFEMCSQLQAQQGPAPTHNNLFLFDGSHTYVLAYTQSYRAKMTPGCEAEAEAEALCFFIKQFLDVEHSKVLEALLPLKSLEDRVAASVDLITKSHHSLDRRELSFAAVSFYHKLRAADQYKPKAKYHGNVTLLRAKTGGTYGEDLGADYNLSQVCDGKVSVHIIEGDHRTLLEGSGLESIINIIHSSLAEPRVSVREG
# UniProt P70168: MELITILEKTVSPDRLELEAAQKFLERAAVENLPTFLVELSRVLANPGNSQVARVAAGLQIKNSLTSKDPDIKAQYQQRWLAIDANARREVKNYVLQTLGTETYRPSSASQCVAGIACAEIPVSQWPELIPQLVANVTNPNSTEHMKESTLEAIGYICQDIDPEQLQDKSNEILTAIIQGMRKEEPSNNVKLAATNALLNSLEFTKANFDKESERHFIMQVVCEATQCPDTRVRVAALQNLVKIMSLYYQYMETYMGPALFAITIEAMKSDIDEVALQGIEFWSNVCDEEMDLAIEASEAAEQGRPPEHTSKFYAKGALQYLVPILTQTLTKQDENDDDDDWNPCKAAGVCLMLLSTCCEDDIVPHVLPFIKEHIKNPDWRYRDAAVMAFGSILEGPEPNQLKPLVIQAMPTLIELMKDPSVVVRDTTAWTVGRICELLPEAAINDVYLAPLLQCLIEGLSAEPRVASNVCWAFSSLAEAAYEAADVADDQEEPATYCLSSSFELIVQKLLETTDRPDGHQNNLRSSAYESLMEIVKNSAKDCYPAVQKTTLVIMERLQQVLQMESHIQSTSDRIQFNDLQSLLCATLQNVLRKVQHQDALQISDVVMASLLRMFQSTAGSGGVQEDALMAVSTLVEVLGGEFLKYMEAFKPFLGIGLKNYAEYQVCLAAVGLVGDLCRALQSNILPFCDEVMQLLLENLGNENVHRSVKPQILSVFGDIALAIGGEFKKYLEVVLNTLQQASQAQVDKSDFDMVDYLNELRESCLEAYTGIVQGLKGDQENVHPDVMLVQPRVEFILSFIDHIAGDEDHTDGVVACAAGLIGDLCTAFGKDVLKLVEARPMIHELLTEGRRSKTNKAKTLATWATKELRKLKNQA
# B1: elongator protein complex 1 (ELP1) (protein, UniProt Q7TT37 1-1333)
# chain: MRNLKLHRTLEFRDIQAPGKPQCFCLRAEQGTVLIGSERGLTEVDPVRREVKTEISLVAEGFLPEDGSGCIVGIQDLLDQESVCVATASGDVIVCNLSTQQLECVGSVASGISVMSWSPDQELLLLATAQQTLIMMTKDFEVIAEEQIHQDDFGEGKFVTVGWGSKQTQFHGSEGRPTAFPVQLPENALPWDDRRPHITWRGDGQYFAVSVVCRQTEARKIRVWNREFALQSTSESVPGLGPALAWKPSGSLIASTQDKPNQQDVVFFEKNGLLHGHFTLPFLKDEVKVNDLLWNADSSVLAIWLEDLPKEDSSTLKSYVQLWTVGNYHWYLKQSLPFSTTGKNQIVSLLWDPVTPCRLHVLCTGWRYLCCDWHWTTDRSSGNSANDLANVAVIDGNRVLVTVFRQTVVPPPMCTYRLLIPHPVNQVIFSAHLGNDLAVLDASNQISVYKCGDKPNMDSTVKLGAVGGNGFKVPLTTPHLEKRYSIQFGNNEEEEEEEVNALQLSFLTWVEDDTFLAISYSHSSSQSIIHHLTVTHSEVDEEQGQLDVSSSVTVDGVVIGLCCCSKTKSLAVQLADGQVLKYLWESPSLAVEPWKNSEGIPVRFVHPCTQMEVATIGGEECVLGLTDRCRFFINDTEVASNITSFAVCDDFLLVTTHSHTCQVFSLSGASLKMLQAALSGSHEASGEILRKVERGSRIVTVVPQDTKLILQMPRGNLEVVHHRALVLAQIRKWLDKLMFKEAFECMRKLRINLNLIHDHNPKVFLENVETFVKQIDSVNHINLFFTELREEDVTKTMYPPPITKSVQVSTHPDGKKLDLICDAMRAAMEAINPRKFCLSILTSHVKKTTPELEIVLQKVQELQGNLPFDPESVSVEEALKYLLLLVDVNELFNHSLGTYDFNLVLMVAEKSQKDPKEYLPFLNTLKKMETNYQRFTIDKYLKRYEKALGHLSKCGPEYFTECLNLIKDKNLYKEALKLYRPDSPQYQAVSMAYGEHLMQEHLYEPAGLVFARCGAQEKALEAFLACGSWQQALCVAAQLQMSKDKVAGLARTLAGKLVEQRKHSEAATVLEQYAQDYEEAVLLLLEGSAWEEALRLVYKYDRVDIIETSVKPSILEAQKNYMDFLDSETATFIRHKNRLQVVRALRRQAPQVHVDHEVAHGPESDLFSETSSIMSGSEMSGRYSHSNSRISARSSKNRRKAERKKHSLKEGSPLEGLALLEALSEVVQSVEKLKDEVRAILKVLFLFEFEEQAKELQRAFESTLQLMERAVPEIWTPAGQQSSTTPVLGPSSTANSITASYQQQKTCVPALDAGVYMPPKMDPRSQWKLSLLE
# B2: WDR1 (protein, UniProt O88342 1-606)
# chain: MPYEIKKVFASLPQVERGVSKILGGDPKGDHFLYTNGKCVILRNIDNPAIADIYTEHAHQVVVAKYAPSGFYIASGDISGKLRIWDTTQKEHLLKYEYQPFAGKIKDIAWTEDSKRIAVVGEGREKFGAVFLWDTGSSVGEITGHNKVINSVDIKQTRPYRLATGSDDNCAAFFEGPPFKFKFTIGDHSRFVNCVRFSPDGNRFATASADGQIFIYDGKTGEKVCALGESKAHDGGIYAISWSPDSTHLLSASGDKTSKIWDVNVNSVVSTFPMGSNVLDQQLGCLWQKDHLLSISLSGYINYLDKNNPSKPLRVIKGHSKSIQCLTVHRNGGKSYIYSGSHDGHINYWDSETGENDSFSGKGHTNQVSRMTVNESEQLVSCSMDDTVRYTNLTLRDYSGQGVVKLDVQPKCVAVGPGGYTVVVCIGQIVLLKDQKKCFSIDNPGYEPEVVAVHPGGDTVAVGGTDGNVRVYSILASTLKDEGKLLEAKGPVTDVAYSHDGAFLAVCDASKVVTVFSVADGYSENNVFYGHHAKIVCLAWSPDNEHFASGGMDMMVYVWTLSDPETKVKIQDAHRLHHVSSLAWLDEHTLVTTSHDASVKEWTITY
# Biological target: biotin-tagged PADI2 (peptidylarginine deiminase 2) (UniProt Q08642)
# Test: affinity purification with mass spectrometry
row,Molecule,binding
1,FASN (from UniProt P19096 1-2504),binds
2,KPNB1 (from UniProt P70168 1-876),binds
3,B1,binds
4,B2,binds

# From publication doi:10.1101/425348
